Some of these results come from one statement about several compounds together. For at least one compound, name, drawing or mass did not settle the structure.
System: pregnant guinea pigs
Experiment: Abortifacient / labor inducing activity in pregnant guinea pigs
Type: in vivo, guinea pig
Details: up to 100 mg/kg/day
Procedure: In the guinea pig model which allows a good prediction of the effects in humans with respect to the abortifacient activity (Elger W, Beier S., Chwalisz K, Fähnrich M, Hasan S H, Henderson D, Neef G, Rohde R (1986): Studies on the mechanism of action of progesterone antagonists. J Steroid Biochem 25: 835-845) the mesoprogestins J 867, J 912, J 956, J 1042 lead up to 100 mg/kg/day to a maximal abortion rate of 20%.
The guinea pig is considered as relevant model of human gestation and parturition (Elger W, Fähnrich M, Beier S, Quing S S, Chwalisz K (1987). Endometrial and myometrial effects of progesterone antagonists in pregnant guinea pigs. Am J Obstet Gynecol 157: 1065-1074; Elger W, Neef G, Beier S, Fähnrich M, Gründel M, Heermann J, Malmendier A, Laurent D, Puri C P, Singh M M, Hasan S H, Becker H (1992). Evaluation of antifertility activities of antigestagens in animal model. In: Puri C P and Van Look P F A (eds), Current Concepts in Fertility Regulation and Reproduction. Wiley Eastern Limited, New Delhi, pp. 303-328; Elger W, Faehnrich M, Beier S, Qing S S, Chwalisz K (1986). Mechanism of action of progesterone antagonists in pregnant guinea pigs. Contraception 6: 47-62; Elger W, Chwalisz K, Faehnrich M, Hasan S H, Laurent D, Beier S, Ottow E, Neef G, Garfield R E (1990). Studies on labor-conditioning and labor-inducing effects of antiprogesterones in animal model. In: Garfield R E (eds), Norwell, pp. 153-175.) The mechanism of abortion of antiprogestins in this species is the initiation of labor and finally the expulsion of the conceptus. Abortifacient effects in the rat during very early pregnancy reflect inhibitory effects on nidation rather than initiation of uterine contractions. Studies in the rat model lead to “overestimation” of the potential of antiprogestins to terminate pregnancy in humans. Conversely, in the guinea pig model, irrespective of the antiprogestin doses, there were high rates of ongoing pregnancies similar to the situation in humans (Elger et al., Current Concepts in Fertility Regulation and Reproduction cited above). Furthermore, in both humans and guinea pigs, there is a strong synergism between antiprogestins and prostaglandins with respect the induction of labor (see the articles cited above and Elger W, Beier S (1983). Prostaglandine and Antigestagene für den Schwangerschaftsabbruch (Prostaglandins and antigestagens for pregnancy termination). German Patent DE 3337450 12; Van Look P, Bygdeman M (1989). Antiprogestational steroids: a new dimension in human fertility regulation. Oxford reviews of reproductive medicine 11: 2-60).
Pregnant guinea pigs were treated on days 43 and 44 of pregnancy and observed until day 50 of gestation. For the effects of various treatments see table 1 and FIG. 2. […]

Compound	maximal abortion rate [%]
COC[C@]1(OC)CC[C@H]2[C@@H]3CCC4=CC(=O)CCC4=C3[C@@H](c3ccc(/C=N/O)cc3)C[C@@]21C [J867, 4-[17β-Methoxy-17α-(methoxymethyl)-3-oxoestra-4,9-dien-11β-yl]benzaldehyd-(1E)-oxim]	≤ 20
COCC1(O)CCC2C3CCC4=CC(=O)CCC4=C3C(c3ccc(C=NO)cc3)CC21C (stereo not drawn) [J912, 4-[17β-Hydroxy-17α-(methoxymethyl)-3-oxoestra-4,9-dien-11β-yl]benzaldehyd-(1E)-oxim]	≤ 20
CCNC(=O)O/N=C/c1ccc([C@H]2C[C@@]3(C)[C@@H](CC[C@]3(COC)OC)[C@@H]3CCC4=CC(=O)CCC4=C32)cc1 [J956, 4-[17β-Methoxy-17α-(methoxymethyl)-3-oxoestra-4,9-dien-11β-yl]benzaldehyd-(1E)-[O-(ethylamino)carbonyl]oxim]	≤ 20
CCSC(=O)O/N=C/c1ccc([C@H]2C[C@@]3(C)[C@@H](CC[C@]3(COC)OC)[C@@H]3CCC4=CC(=O)CCC4=C32)cc1 [J1042, 4-[17β-Methoxy-17α-(methoxymethyl)-3-oxoestra-4,9-dien-11β-yl]benzaldehyd-(1E)-[O-(ethylthio)carbonyl]oxim]	≤ 20

Source: patent US8193252B1, “Mesoprogestins (progesterone receptor modulators) for the treatment and prevention of benign hormone dependent gynecological disorders” (Bayer Pharma AG, priority 1999, dated 2012)
